# Results are given in words; binding and its absence hold for the method and conditions named. In cells and extracts the contact can be indirect. Some results given as binding are weak or reduced against the parent protein; the word gives no strength.
# T1: peroxisome proliferators-activated receptor α (rat (endogenous in H9c2)) (UniProt P37230)
# T1 sequence: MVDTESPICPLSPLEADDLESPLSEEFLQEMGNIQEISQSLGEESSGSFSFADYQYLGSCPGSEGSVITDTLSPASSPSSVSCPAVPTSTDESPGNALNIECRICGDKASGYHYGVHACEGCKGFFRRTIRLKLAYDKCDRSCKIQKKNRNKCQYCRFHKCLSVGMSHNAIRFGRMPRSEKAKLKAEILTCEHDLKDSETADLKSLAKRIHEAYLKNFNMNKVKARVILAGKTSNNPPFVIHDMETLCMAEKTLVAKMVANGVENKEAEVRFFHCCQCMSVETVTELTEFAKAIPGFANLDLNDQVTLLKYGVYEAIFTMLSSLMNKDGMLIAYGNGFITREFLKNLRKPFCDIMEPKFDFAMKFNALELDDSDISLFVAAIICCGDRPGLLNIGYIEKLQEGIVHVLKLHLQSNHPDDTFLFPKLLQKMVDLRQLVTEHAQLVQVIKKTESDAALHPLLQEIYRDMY
# Target: T1, peroxisome proliferators-activated receptor α (rat (endogenous in H9c2))
# Experiment: co-IP; immunoprecipitation with the anti-PPARα or the anti-PGC-1β antibody in H9c2 cells, followed by Western blotting for PPARα and PGC-1β
binder,measurement,value
"peroxisome proliferator-activated receptor γ coactivator 1β (protein, UniProt Q811R2 1-1010) MAGNDCGALLDEELSSFFLNYLSDTQGGESGEEQLCADLPELDLSQLDASDFDSATCFGELQWCPETSETEPSQYSPDDSEFFQIDSENEALLAALTKTLDDIPEDDVGLAAFPGLDEGDTPSCTPASPAPLSVPPSPALERLLSPVSEVDELSLLQKLLLATSSPTASSDALKDGATWSQTSLSSRSQRPCVKVDGTQDKKTPMLRSQSRPCTELHKHLTSVLPCPRGKACSPPPHPSPQLLSKEDEEVGEDCPSPWPAPASPQDSLGQDTANPNSAQVPKDDVRAMVQLIRYMHTYCLPQRKLPQRASEPIPQSCSSPLRKVPPRSRQTPKAFWTEFSILRELLAQDILCDVSKPYRLATPVYASLTPQSRTRPPKDSQASPAHSAMAEEVRITASPKSTGPRPSLRPLRLEVKRDVNKPARQKREEDEEEEEEEEEEEEKEDEEEEWGRKRPGRGLPWTKLGRKMDSSVCPVRRSRRLNPELGPWLTFTDEPLGALPSMCLATETHDLEEELGGLTDSSQGQQLPLGSQIPTLESPCESGCGDTDEDPSCPRPPSRDSPRCLMLALSQSDPLGKKSFEESLTVELCGTAGLTPPTTPPYKPMEEDPFKQDTKHSPGQDTAPSLPSPETLQLTATPGASHKLPKRHPERSELLSHLQHATTQPVSQAGQKRPFSCSFGDHDYCQVIRPEAALQRKVLRSWEPIKVHLEDLAHQGATLPVETKTPRREADQNCDPTPKDSMQLRDHEIRASLTKHFGLLETALEEEDLASCKSPEYDTVFEDSSSSSGESSFLLEEEEEEGGEEDDEGEDSGVSPPCSDHCPYQSPPSKASRQLCSRSRSSSGSSSCSSWSPATRKNFRLESRGPCSDGTPSARHAKKRREKAIGEGRVVYIRNLSGDMSSRELKKRFEVFGEIVECQVLRRSKRGQKHGFITFRCSEHAALSVRNGATLRKRNEPSFHLSYGGLRHFRWPRYTDYDPTSEESLPSSGKSKYEAMDFDSLLKEAQQSLH",binding,binds

# — paper PMC6329097
